Measured values published in patent US8138119B2, “Alkoxyalkyl spirocyclic tetramic acids and tetronic acids” (Bayer Cropscience AG, priority 2005, dated 2012).
Some entries share one result that the patent states for a list of compounds.

Assays:
Format in all cases: in vivo
[1] = test system: larvae of the mustard beetle (Phaedon cochleariae); test: Phaedon test (PHAECO spray treatment); conditions: 500 g/ha of a.i., after 7 d, Chinese cabbage disks sprayed
[2] = test system: green peach aphid (Myzus persicae); test: Myzus test (MYZUPE spray treatment); conditions: 500 g/ha of a.i., after 5 d, Chinese cabbage disks sprayed
Setaria viridis = test: Herbicidal post-emergence action; conditions: about 3 weeks
Lolium multiflorum = test: Herbicidal post-emergence action; conditions: about 3 weeks
Echinochloa crusgalli = test: Herbicidal post-emergence action; conditions: about 3 weeks; for herbicidal activity against Echinochloa crus-galli: 80 g/ha of a.i.; for herbicidal activity against Echinochloa crusgalli: 320 g/ha of a.i.
Avena sativa = test: Herbicidal post-emergence action; conditions: 320 g/ha of a.i., about 3 weeks

SMILES: COCC1CCCC2(C1)NC(=O)C(c1cc(C)ccc1C)=C2O (single isomer, unassigned) [Example I-1-a-6]
- efficacy (beetle larvae killed) [1]: ≥ 80%
- efficacy (aphids killed) [2]: ≥ 80%

SMILES: CCCOCC1CCCC2(C1)NC(=O)C(c1cc(C)ccc1C)=C2O (single isomer, unassigned) [Example I-1-a-10]
- efficacy (beetle larvae killed) [1]: ≥ 80%
- efficacy (aphids killed) [2]: ≥ 80%

SMILES: COCC1CCCC2(C1)NC(=O)C(c1c(C)cc(Cl)cc1Cl)=C2O (single isomer, unassigned) [Example I-1-a-15]
- herbicidal activity against Setaria viridis (Setaria viridis; 80 g/ha of a.i.): ≥ 80%
- efficacy (beetle larvae killed) [1]: ≥ 80%
- herbicidal activity against Lolium multiflorum (Lolium multiflorum; 80 g/ha of a.i.): ≥ 80%
- efficacy (aphids killed) [2]: ≥ 80%
- herbicidal activity against Echinochloa crus-galli (Echinochloa crusgalli): ≥ 80%

SMILES: COCC1CCCC2(C1)NC(=O)C(c1cc(C)c(C)cc1C)=C2O (single isomer, unassigned) [Example I-1-a-16]
- efficacy (beetle larvae killed) [1]: ≥ 80%

SMILES: COCC1CCCC2(C1)NC(=O)C(c1c(C)cc(C)c(C)c1C)=C2O (single isomer, unassigned) [Example I-1-a-17]
- efficacy (aphids killed) [2]: ≥ 80%

SMILES: COCC1CCCC2(C1)NC(=O)C(c1c(C)cc(Br)cc1C)=C2O (single isomer, unassigned) [Example I-1-a-18]
- herbicidal activity against Setaria viridis (Setaria viridis; 80 g/ha of a.i.): ≥ 80%
- efficacy (beetle larvae killed) [1]: ≥ 80%
- herbicidal activity against Lolium multiflorum (Lolium multiflorum; 80 g/ha of a.i.): ≥ 80%
- herbicidal activity against Echinochloa crus-galli (Echinochloa crusgalli): ≥ 80%

SMILES: COCC1CCCC2(C1)NC(=O)C(c1c(Cl)cc(Cl)cc1Cl)=C2O (single isomer, unassigned) [Example I-1-a-19]
- herbicidal activity against Setaria viridis (Setaria viridis; 80 g/ha of a.i.): ≥ 80%
- efficacy (beetle larvae killed) [1]: ≥ 80%
- herbicidal activity against Lolium multiflorum (Lolium multiflorum; 80 g/ha of a.i.): ≥ 80%
- efficacy (aphids killed) [2]: ≥ 80%
- herbicidal activity against Echinochloa crus-galli (Echinochloa crusgalli): ≥ 80%

SMILES: CCOc1cc(Cl)cc(CC)c1C1=C(O)C2(CCC(CCOC)CC2)NC1=O (single isomer, unassigned) [Example I-1-a-49]
- herbicidal activity against Setaria viridis (Setaria viridis; 80 g/ha of a.i.): ≥ 80%
- herbicidal activity against Setaria viridis (Setaria viridis; 320 g/ha of a.i.): ≥ 80%
- herbicidal activity against Lolium multiflorum (Lolium multiflorum; 80 g/ha of a.i.): ≥ 80%
- herbicidal activity against Lolium multiflorum (Lolium multiflorum; 320 g/ha of a.i.): ≥ 80%
- herbicidal activity against Avena sativa (Avena sativa): ≥ 80%
- herbicidal activity against Echinochloa crus-galli (Echinochloa crusgalli): ≥ 80%
- herbicidal activity against Echinochloa crusgalli (Echinochloa crusgalli): ≥ 80%

SMILES: COCCC1CCC2(CC1)NC(=O)C(c1cc(C)c(Cl)cc1C)=C2O (single isomer, unassigned) [Example I-1-a-59]
- efficacy (beetle larvae killed) [1]: ≥ 80%
- efficacy (aphids killed) [2]: ≥ 80%

SMILES: CCc1cc(Cl)cc(OC)c1C1=C(OC(=O)COC)C2(CCC(COC)CC2)NC1=O (single isomer, unassigned) [Example I-1-b-3]
- herbicidal activity against Setaria viridis (Setaria viridis; 320 g/ha of a.i.): ≥ 80%
- herbicidal activity against Lolium multiflorum (Lolium multiflorum; 320 g/ha of a.i.): ≥ 80%
- herbicidal activity against Avena sativa (Avena sativa): ≥ 80%
- herbicidal activity against Echinochloa crusgalli (Echinochloa crusgalli): ≥ 80%

SMILES: CCCOCC1CCCC2(C1)NC(=O)C(c1c(C)cc(C)cc1C)=C2OC(=O)COC (single isomer, unassigned) [Example I-1-b-7]
- herbicidal activity against Setaria viridis (Setaria viridis; 80 g/ha of a.i.): ≥ 80%
- efficacy (beetle larvae killed) [1]: ≥ 80%
- herbicidal activity against Lolium multiflorum (Lolium multiflorum; 80 g/ha of a.i.): ≥ 80%
- efficacy (aphids killed) [2]: ≥ 80%
- herbicidal activity against Echinochloa crus-galli (Echinochloa crusgalli): ≥ 80%

SMILES: CCc1cc(Cl)cc(OC)c1C1=C(OC(=O)C(C)C)C2(CCCC(COC)C2)NC1=O (single isomer, unassigned) [Example I-1-b-8]
- herbicidal activity against Setaria viridis (Setaria viridis; 80 g/ha of a.i.): ≥ 80%
- herbicidal activity against Lolium multiflorum (Lolium multiflorum; 80 g/ha of a.i.): ≥ 80%
- herbicidal activity against Echinochloa crus-galli (Echinochloa crusgalli): ≥ 80%

SMILES: CCOc1cc(Cl)cc(CC)c1C1=C(OC(=O)C(C)C)C2(CCCC(COC)C2)NC1=O (single isomer, unassigned) [Example I-1-b-10]
- herbicidal activity against Setaria viridis (Setaria viridis; 80 g/ha of a.i.): ≥ 80%
- herbicidal activity against Setaria viridis (Setaria viridis; 320 g/ha of a.i.): ≥ 80%
- herbicidal activity against Lolium multiflorum (Lolium multiflorum; 80 g/ha of a.i.): ≥ 80%
- herbicidal activity against Lolium multiflorum (Lolium multiflorum; 320 g/ha of a.i.): ≥ 80%
- herbicidal activity against Avena sativa (Avena sativa): ≥ 80%
- herbicidal activity against Echinochloa crus-galli (Echinochloa crusgalli): ≥ 80%
- herbicidal activity against Echinochloa crusgalli (Echinochloa crusgalli): ≥ 80%

SMILES: CCOc1cc(Cl)cc(CC)c1C1=C(OC(=O)C(C)C)C2(CCCC(CCOC)C2)NC1=O (single isomer, unassigned) [Example I-1-b-18]
- herbicidal activity against Setaria viridis (Setaria viridis; 80 g/ha of a.i.): ≥ 80%
- herbicidal activity against Setaria viridis (Setaria viridis; 320 g/ha of a.i.): ≥ 80%
- herbicidal activity against Lolium multiflorum (Lolium multiflorum; 80 g/ha of a.i.): ≥ 80%
- herbicidal activity against Lolium multiflorum (Lolium multiflorum; 320 g/ha of a.i.): ≥ 80%
- herbicidal activity against Avena sativa (Avena sativa): ≥ 80%
- herbicidal activity against Echinochloa crus-galli (Echinochloa crusgalli): ≥ 80%
- herbicidal activity against Echinochloa crusgalli (Echinochloa crusgalli): ≥ 80%

SMILES: CCc1cc(Cl)cc(OC)c1C1=C(OC(=O)C(C)C)C2(CCC(CCOC)CC2)NC1=O (single isomer, unassigned) [Example I-1-b-20]
- herbicidal activity against Setaria viridis (Setaria viridis; 80 g/ha of a.i.): ≥ 80%
- herbicidal activity against Setaria viridis (Setaria viridis; 320 g/ha of a.i.): ≥ 80%
- herbicidal activity against Lolium multiflorum (Lolium multiflorum; 80 g/ha of a.i.): ≥ 80%
- herbicidal activity against Lolium multiflorum (Lolium multiflorum; 320 g/ha of a.i.): ≥ 80%
- herbicidal activity against Avena sativa (Avena sativa): ≥ 80%
- herbicidal activity against Echinochloa crus-galli (Echinochloa crusgalli): ≥ 80%
- herbicidal activity against Echinochloa crusgalli (Echinochloa crusgalli): ≥ 80%

SMILES: CCOC(=O)OC1=C(c2c(C)cc(C)cc2OC)C(=O)NC12CCCC(COC)C2 (single isomer, unassigned) [Example I-1-c-14]
- herbicidal activity against Setaria viridis (Setaria viridis; 80 g/ha of a.i.): ≥ 80%
- herbicidal activity against Setaria viridis (Setaria viridis; 320 g/ha of a.i.): ≥ 80%
- herbicidal activity against Lolium multiflorum (Lolium multiflorum; 80 g/ha of a.i.): ≥ 80%
- herbicidal activity against Lolium multiflorum (Lolium multiflorum; 320 g/ha of a.i.): ≥ 80%
- herbicidal activity against Avena sativa (Avena sativa): ≥ 80%
- herbicidal activity against Echinochloa crus-galli (Echinochloa crusgalli): ≥ 80%
- herbicidal activity against Echinochloa crusgalli (Echinochloa crusgalli): ≥ 80%

SMILES: CCOC(=O)OC1=C(c2c(C)cc(C)cc2CC)C(=O)NC12CCC(COC)CC2 (single isomer, unassigned) [Example I-1-c-35]
- efficacy (beetle larvae killed) [1]: ≥ 80%
- efficacy (aphids killed) [2]: ≥ 80%

SMILES: COCC1CCC2(CC1)NC(=O)C(c1cc(C)ccc1C)=C2O (stereo not shown) [Example I-1-a-1]
- efficacy (beetle larvae killed) [1]: ≥ 80%
- efficacy (aphids killed) [2]: ≥ 80%

SMILES: COCC1CCCC2(C1)NC(=O)C(c1c(C)cc(I)cc1C)=C2O (stereo not shown) [Example I-1-a-23]
- herbicidal activity against Setaria viridis (Setaria viridis; 80 g/ha of a.i.): ≥ 80%
- efficacy (beetle larvae killed) [1]: ≥ 80%
- herbicidal activity against Lolium multiflorum (Lolium multiflorum; 80 g/ha of a.i.): ≥ 80%
- efficacy (aphids killed) [2]: ≥ 80%
- herbicidal activity against Echinochloa crus-galli (Echinochloa crusgalli): ≥ 80%

SMILES: COCC1CCCC2(C1)NC(=O)C(c1c(C)cc(Cl)cc1C)=C2O (stereo not shown) [Example I-1-a-25]
- herbicidal activity against Setaria viridis (Setaria viridis; 80 g/ha of a.i.): ≥ 80%
- efficacy (beetle larvae killed) [1]: ≥ 80%
- herbicidal activity against Lolium multiflorum (Lolium multiflorum; 80 g/ha of a.i.): ≥ 80%
- efficacy (aphids killed) [2]: ≥ 80%
- herbicidal activity against Echinochloa crus-galli (Echinochloa crusgalli): ≥ 80%

SMILES: CCc1cc(Br)cc(C)c1C1=C(O)C2(CCCC(COC)C2)NC1=O (stereo not shown) [Example I-1-a-26]
- herbicidal activity against Setaria viridis (Setaria viridis; 80 g/ha of a.i.): ≥ 80%
- herbicidal activity against Lolium multiflorum (Lolium multiflorum; 80 g/ha of a.i.): ≥ 80%
- efficacy (aphids killed) [2]: ≥ 80%
- herbicidal activity against Echinochloa crus-galli (Echinochloa crusgalli): ≥ 80%

SMILES: COCC1CCC2(CC1)NC(=O)C(c1cc(C)c(C)cc1C)=C2O (stereo not shown) [Example I-1-a-29]
- efficacy (aphids killed) [2]: ≥ 80%

SMILES: COCC1CCC2(CC1)NC(=O)C(c1c(C)cc(C)c(C)c1C)=C2O (stereo not shown) [Example I-1-a-30]
- efficacy (beetle larvae killed) [1]: ≥ 80%
- efficacy (aphids killed) [2]: ≥ 80%

SMILES: COCC1CCC2(CC1)NC(=O)C(c1c(C)cc(Cl)cc1C)=C2O (stereo not shown) [Example I-1-a-32]
- herbicidal activity against Setaria viridis (Setaria viridis; 80 g/ha of a.i.): ≥ 80%
- efficacy (beetle larvae killed) [1]: ≥ 80%
- herbicidal activity against Lolium multiflorum (Lolium multiflorum; 80 g/ha of a.i.): ≥ 80%
- efficacy (aphids killed) [2]: ≥ 80%
- herbicidal activity against Echinochloa crus-galli (Echinochloa crusgalli): ≥ 80%

SMILES: COCCC1CCCC2(C1)NC(=O)C(c1c(C)cc(Cl)cc1C)=C2O (stereo not shown) [Example I-1-a-40]
- efficacy (beetle larvae killed) [1]: ≥ 80%
- efficacy (aphids killed) [2]: ≥ 80%

SMILES: COCC1CCCC2(C1)OC(=O)C(c1c(C)cc(Cl)cc1C)=C2O (stereo not shown) [Example I-2-a-4]
- efficacy (aphids killed) [2]: ≥ 80%

SMILES: COCC1CCC2(CC1)OC(=O)C(c1c(C)cc(Br)cc1C)=C2O (stereo not shown) [Example I-2-a-9]
- efficacy (aphids killed) [2]: ≥ 80%

SMILES: CCc1cc(Br)cc(CC)c1C1=C(O)C2(CCC(COC)CC2)OC1=O (stereo not shown) [Example I-2-a-13]
- efficacy (aphids killed) [2]: ≥ 80%

SMILES: CCc1cc(C)cc(CC)c1C1=C(O)C2(CCC(COC)CC2)OC1=O (stereo not shown) [Example I-2-a-14]
- efficacy (aphids killed) [2]: ≥ 80%

SMILES: COCCC1CCCC2(C1)OC(=O)C(c1cc(-c3ccc(Cl)cc3)ccc1C)=C2O (stereo not shown) [Example I-2-a-18]
- efficacy (beetle larvae killed) [1]: ≥ 80%
- efficacy (aphids killed) [2]: ≥ 80%

SMILES: COCCC1CCCC2(C1)OC(=O)C(c1c(C)cc(Cl)cc1C)=C2O (stereo not shown) [Example I-2-a-20]
- efficacy (aphids killed) [2]: ≥ 80%

SMILES: COCCC1CCCC2(C1)OC(=O)C(c1cc(C)c(C)cc1C)=C2O (stereo not shown) [Example I-2-a-21]
- efficacy (aphids killed) [2]: ≥ 80%

SMILES: COCCC1CCCC2(C1)OC(=O)C(c1c(C)cc(C)cc1C)=C2O (stereo not shown) [Example I-2-a-22]
- efficacy (aphids killed) [2]: ≥ 80%

SMILES: CCc1cc(C)cc(CC)c1C1=C(O)C2(CCCC(CCOC)C2)OC1=O (stereo not shown) [Example I-2-a-24]
- efficacy (aphids killed) [2]: ≥ 80%

SMILES: COCCC1CCCC2(C1)OC(=O)C(c1cc(-c3ccc(Cl)cc3)ccc1Cl)=C2O (stereo not shown) [Example I-2-a-26]
- efficacy (beetle larvae killed) [1]: ≥ 80%
- efficacy (aphids killed) [2]: ≥ 80%

SMILES: COCCC1CCC2(CC1)OC(=O)C(c1c(C)cc(Br)cc1C)=C2O (stereo not shown) [Example I-2-a-29]
- efficacy (aphids killed) [2]: ≥ 80%

SMILES: COCCC1CCC2(CC1)OC(=O)C(c1cc(C)c(C)cc1C)=C2O (stereo not shown) [Example I-2-a-31]
- efficacy (aphids killed) [2]: ≥ 80%

SMILES: CCc1cc(C)cc(CC)c1C1=C(O)C2(CCC(CCOC)CC2)OC1=O (stereo not shown) [Example I-2-a-33]
- efficacy (aphids killed) [2]: ≥ 80%

SMILES: COCCC1CCC2(CC1)OC(=O)C(c1cc(C)c(-c3ccc(Cl)cc3)cc1C)=C2O (stereo not shown) [Example I-2-a-34]
- efficacy (aphids killed) [2]: ≥ 80%

SMILES: COCCC1CCC2(CC1)OC(=O)C(c1cc(-c3ccc(Cl)cc3)ccc1Cl)=C2O (stereo not shown) [Example I-2-a-35]
- efficacy (aphids killed) [2]: ≥ 80%

SMILES: CCOC(=O)OC1=C(c2c(CC)cc(C)cc2CC)C(=O)OC12CCCC(CCOC)C2 (stereo not shown) [Example I-2-c-3]
- efficacy (aphids killed) [2]: ≥ 80%
